# PubChem BioAssay AID2685 (National Center for Advancing Translational Sciences (NCATS), 2010)
# This is one part of the list. Further columns of the screen follow, without active or inactive calls. The list favours compounds with an active or inconclusive main result. The note in brackets gives the kind of curve behind each potency; many fits are weak.
# Assay: qHTS Assay for Lipid Storage Modulators in Drosophila S3 Cells;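 for cell number change: cells counted by Cell Tracker Red CMTPX staining in the red channel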
# Settings: BODIPY lipid droplet fluorescence, 18-24 h; for cell number change: measured here: cell count max response, cells fed with added oleic acid
# How it was run: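 Laser-scanning cytometry quantifies lipid droplet accumulation (500–530 nm total intensity; droplet/cell object ratio) in oleic acid-fed (400 uM added) Drosophila S3 cells treated with a concentration series. 20 uM Triacsin C defined 100% inhibition.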
# [1] = measured here: lipid fluorescence (Fed channel) AC50, cells fed with added oleic acid
# [2] = measured here: cell number channel AC50, cells fed with added oleic acid
SMILES,cell number change,AC50 [1],AC50 [2]
COc1ccc(-c2nc3c(c(SCC(=O)N4CCOCC4)n2)Cc2c(CO)cnc(C)c2O3)cc1,-13.2%,"0.651 µM [falling, single point]",
CC(=O)c1cccc(NC(=S)Nc2cccc3ccccc23)c1,-37.1%,"29.1 µM [rising, single point]","29.1 µM [falling, single point]"
CC1CCc2c(sc(NC(=O)CSc3nc(N)cc(=O)[nH]3)c2C(N)=O)C1 (stereo unspecified),165%,,"16.4 µM [rising, partial curve]"
CN(C)c1nc(N)nc(CSc2nnnn2-c2cccc3ccccc23)n1,-6.36%,"3.26 µM [rising, partial curve]",
COc1ccc(C(=O)NCc2nnc(SCC(=O)Nc3nc4ccccc4s3)o2)cc1,-2.12%,"0.651 µM [falling, partial curve, poor fit]",
CC1CN(C(=O)c2cccc(S(=O)(=O)N3CCN(c4ccc(F)cc4)CC3)c2)CC(C)O1 (stereo unspecified),-18.2%,"16.4 µM [falling, partial curve]",
COc1cc(Br)c(C2C(C#N)=C(N)Oc3n[nH]c(-c4cccnc4)c32)cc1OC (stereo unspecified),,"23.1 µM [rising, partial curve]",
O=C(CSC1=NCCS1)NC1CCCCC1,-63.1%,"6.51 µM [falling, full curve]","1.84 µM [falling, partial curve, poor fit]"
NC(=O)c1cccc(C(N)=O)n1,-12.3%,"0.00461 µM [falling, full curve, poor fit]",
CC(C)(O)CC[C@@H](O)[C@](C)(O)C1CC[C@@]2(O)C3=CC(=O)[C@]4(O)C[C@@H](O)[C@@H](O)C[C@]4(C)C3CC[C@]12C (stereo partly specified),-29.7%,,"0.082 µM [falling, full curve, poor fit]"
COc1cc(OC)cc(C(=O)NC(C)CCc2ccccc2)c1 (stereo unspecified),-18.9%,"3.66 µM [falling, single point]",
COc1c2occc2c(OC)c2c(=O)cc(C)oc12,-0.233%,"0.366 µM [rising, full curve]",
Cc1ccc(NC(=O)C2CC(=O)N(c3ccc4c(c3)OCCO4)C2)cc1S(=O)(=O)N1CCCCCC1 (stereo unspecified),-50%,,"8.2 µM [falling, partial curve, poor fit]"
COCCCN1C(=O)C(=O)/C(=C(/O)c2ccc(S(=O)(=O)N3CCOCC3)cc2)C1c1cccc(Cl)c1 (stereo unspecified),,"29.1 µM [rising, single point]",
CN(C)c1ccc(P(=O)(CC(=O)N/N=C/c2ccc(C#N)cc2)OCCCl)cc1 (stereo unspecified),,"0.58 µM [rising, single point]","0.92 µM [rising, single point]"
Cc1[nH]c(=S)c(C#N)c(C)c1CC(=O)c1ccc(Br)cc1,1.38%,,
Cc1ccc(C(=O)Nc2ncc(C)s2)o1,61.3%,,"14.6 µM [rising, single point]"
CCC(C)c1c(O)nc(SCC(=O)N2CCCCCC2)[nH]c1=O (stereo unspecified),-7.89%,"0.794 µM [rising, partial curve, poor fit]",
O=C(CSc1nnc(-c2ccncc2)o1)Oc1ccccc1,-30.5%,"0.651 µM [falling, full curve]","2.91 µM [falling, full curve, poor fit]"
CCOC(=O)/C=c1\s/c(=C\c2ccccc2C)c(=O)n1CC(=O)NCc1ccc2c(c1)OCO2,6.48%,"0.082 µM [rising, full curve, poor fit]","4.11 µM [rising, single point]"
Cc1cccc(OCc2nnc(SCCC(=O)O)n2-c2ccccc2)c1,23.4%,"29.1 µM [rising, single point]",
CC(C)CCCN1C(Nc2ccccc2)=NC[C@@H]1Cc1ccccc1,5.09%,"29.1 µM [falling, single point]",
COc1cc2c(cc1OC)C(c1cc(Br)ccc1F)N(C(=O)CCl)CC2 (stereo unspecified),-25%,"29.1 µM [rising, partial curve]",
CCN(CC(=O)c1c(N)n(C)c(=O)n(C)c1=O)c1cccc2ccccc12,-0.244%,"29.1 µM [rising, single point]",
Cc1nc(N2CCOCC2)nc2c1CCC2,-12%,"0.103 µM [falling, full curve, poor fit]",
O=C(NCC(=O)N1CCN(c2ccccc2O)CC1)c1ccc2c(c1)OCO2,-18.5%,"16.4 µM [rising, single point]",
COc1ccc(CCn2ccc(O)c(Cc3ccc(Cl)cc3Cl)c2=O)cc1OC,-54.6%,"0.184 µM [falling, full curve]","0.517 µM [falling, full curve]"

# Reformatted bar-delimited: part of the list above
SMILES | cell number change | AC50 [1] | AC50 [2]
Cc1nc(N2CCOCC2)nc2c1CCC2 | -12% | 0.103 µM [falling, full curve, poor fit] | 
O=C(NCC(=O)N1CCN(c2ccccc2O)CC1)c1ccc2c(c1)OCO2 | -18.5% | 16.4 µM [rising, single point] | 
